Screening data, single-dose tests

Protein sequences, listed by entry. Tags and fused reporters are not part of them.
UniProt P9WFT3, whole entry: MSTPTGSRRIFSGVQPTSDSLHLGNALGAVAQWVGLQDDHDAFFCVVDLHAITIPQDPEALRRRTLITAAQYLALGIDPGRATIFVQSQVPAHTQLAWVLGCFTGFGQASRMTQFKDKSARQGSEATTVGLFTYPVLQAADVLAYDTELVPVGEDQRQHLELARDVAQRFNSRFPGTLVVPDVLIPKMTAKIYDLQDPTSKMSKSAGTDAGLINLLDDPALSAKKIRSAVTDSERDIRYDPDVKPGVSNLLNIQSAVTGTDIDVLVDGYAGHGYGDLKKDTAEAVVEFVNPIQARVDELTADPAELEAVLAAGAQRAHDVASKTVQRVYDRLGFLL

The values are deposited in ChEMBL (CHEMBL3988442, “University of Dundee, Small-Polar-MMV Screening Library” (2021)).

A: 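Cell assay of Leishmania donovani living inside macrophages; the read-out is not stated. Concentration: 30 µM. Direction is inferred from retests: higher values go with stronger inhibition. Of about 69,000 compounds tested this way, about 1,000 (1.5%) reached 50% or more in at least one test.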
B: 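Enzyme assay of tryptophanyl-tRNA synthetase; the read-out is not stated. Target: Tryptophan-tRNA ligase, Mycobacterium tuberculosis (UniProt P9WFT3). Compounds at 10 µM. Higher most likely means stronger inhibition; the record gives no direction and few retests gave an IC50. Size under these conditions: about 65,000 compounds, about 64 of them at 50% or above in at least one test.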
C: 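Whole-parasite assay of Trypanosoma brucei over 72 hours; the read-out is not stated. Compounds at 30 µM. Higher reads as stronger inhibition (inferred: compounds with an IC50 in retests scored well above the rest). Values scatter widely below zero; nearly all retest evidence comes from the higher of the two concentrations used. About 64,000 compounds were tested under these conditions; 1.5% (about 940) showed 50% or more at least once.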

Values are the deposited “Percent Effect”, in %. The record does not define 0% and 100%; most values in the screen are far below 50% and negative numbers occur (in some assays of this library far below -100). This is an unselected part of the compounds tested. Two or more numbers in one place are separate tests of the same structure; such repeats can differ widely. A dash means the value is not listed here; it may have been measured.

| Compound | A | B | C |
|---|---|---|---|
| `NC(=O)CCN(CC(=O)NCc1ccccn1)c1ccc(F)cc1` | 10.44 | 1.929 | -22.83 |
| `Cc1cnc2n(c1=O)CC(C(=O)NC1CC1)CS2` (centres undefined) | 13.32 | 0.6415 | -57.9 |
| `COc1cccc([S+]([O-])CC(=O)NCc2cc(F)cc(F)c2)c1` (centres undefined) | -4.732 | -4.421 | -65.02 |
| `Cc1cnc(N2CCc3c(cnc(C)c3C(=O)O)C2)nc1.O=C(O)C(F)(F)F` | 14.7 | - | - |
| `Cn1cc(-c2ccnc(NCC3CCN(Cc4ccccc4)C3)n2)cn1` (centres undefined) | 16.18 | 15.27 | -167.5 |
| `Cc1cccc(CN2C[C@@H]3COC[C@]3(CNC(=O)N3CCCC3)C2)n1` | - | 0.8629 | - |
| `CCCOC(=O)N1CCC(c2nnc(Cn3cccn3)n2C2CC2)CC1` | -19.9 | 4.328 | -27.1 |
| `CC(C)NC(=O)C1(Cc2ccccc2-c2cncnc2)CCCNC1` (centres undefined) | 16.97 | -8.943 | -17.52 |
| `Cc1cc(C)n(CC2CN(c3cnc4ccccc4n3)CCO2)n1` (centres undefined) | 41.22 | -4.011 | - |
| `Cc1nn(C)c(C)c1C1CCCN1C(=O)c1ccc(N(C)C)nc1` (centres undefined) | -11.88 | 6.289 | - |
| `CS(=O)(=O)CCCNc1cccc(COC2CCCCC2)c1` | -9.056 | -1.06 | -2.849 |
| `O=C(O)C(F)(F)F.O=C(O)C(F)(F)F.O=C(O)C(F)(F)F.[H][C@@]12C[C@H](C(=O)NCCN(C)C)N(C(C)C)[C@]1([H])CN(c1ncccn1)C2` | 12.49 | - | -0.9713 |
| `Nc1nc(CNc2nccc(CCC(F)(F)F)n2)cs1` | 26.41 | -2.216 | -1.264 |
| `Cc1nc(CN2CCCC(N(C)Cc3nnsc3Cl)C2)no1` (centres undefined) | 27.66 | 2.111 | -1.253 |
| `CCc1c(C)nc2n(c1=O)CC(C(=O)Nc1sccc1C(=O)OC)CS2` (centres undefined) | 11.68 | -1.866 | -7.069 |
| `Cc1nc(CN2CCC3(CC2)CCN(C(=O)c2cscn2)C3)cs1.O=C(O)C(F)(F)F` | 35.32 | - | -22.36 |
| `Cc1ncc(CN2CCC(N(C)Cc3noc(C4CC4)n3)C2)s1` (centres undefined) | 17.51 | 2.912 | - |
| `CCn1nc(C)c2nc(C)nc(NC3CCCC3)c21` | 34.86 | 0.7282 | -3.661 |
| `Cc1cccc(S(=O)(=O)N2C[C@H]3C[C@H](C(=O)NCC(C)C)[C@@H](C2)O3)c1` | - | 6.492 | - |
| `CS(=O)(=O)N[C@@H]1CCO[C@]2(CCN(CC3CCOCC3)C2)C1` | - | -4.727 | - |
| `c1cnc(N2CCOCC3(CCCN(c4nncs4)C3)C2)cn1` (centres undefined) | -6.267 | -2.616 | -20.38 |
| `Cc1nnc(CNC(C)c2cc(C)c(F)c(C)c2)s1` (centres undefined) | 10.68 | 0.9709 | -63.18 |
| `CN(CCc1cccs1)C(=O)Nc1cnn(CC2CCCO2)c1` (centres undefined) | 18.67 | 2.633 | 14.51 |
| `N[C@H]1CC[C@@H](n2cc(C(=O)N[C@H]3CCCc4ccccc43)nn2)CC1` | 4.994 | 5.491 | -48.79 |
| `CN(CC(=O)NCC(F)(F)F)Cc1nc2c(s1)CCCC2` | 12.39 | -0.678 | 7.63 |
| `CCS(=O)(=O)N1CCc2cc(C(=O)NC)c(NCC(C)C)nc2CC1` | 16.56 | -1.274 | -97.24 |
| `CNC(=O)[C@H]1C[C@@H]2CN(C(=O)c3cccnc3)C[C@@H]2N1S(C)(=O)=O` | - | 0.266 | - |
| `Cc1nc(NC(=O)C2(C)CN(C)CCO2)sc1C` (centres undefined) | - | -2.344 | - |
| `CCN(C(=O)C(C)C)C(c1cccnc1)c1ccc2c(c1)CCO2` (centres undefined) | -9.168 | -1.347 | -27.82 |
| `Cc1ocnc1C(=O)N[C@H]1CN(CC2CCC2)C[C@@H]1C(C)C` | 8.649 | 2.577 | -22.96 |
| `CCC(CO)N(Cc1ccccn1)C(=O)c1ccc2c(c1)CCO2` (centres undefined) | -12 | 5.151 | 25.44 |
| `O=C(Nc1ccccc1)C1CN(C(=O)c2cccs2)CC12CCOCC2` (centres undefined) | 1.584 | -1.766 | -1.155 |
| `Nc1cc(-c2cc(C(=O)O)ccc2Cl)c2cc[nH]c2n1` | -25.87 | 7.931 | -6.06 |
| `CC[C@@H]1N(Cc2ccc(C)s2)CCC[C@]12CCC(=O)N2C` | - | -2.819 | - |
| `Fc1ccc(-c2nnc(CN3CCCC3Cn3cccn3)o2)cc1` (centres undefined) | 15.13 | 2.611 | - |
| `CC(C)N(C)C[C@H]1C[C@@H]2CN(Cc3ccco3)C[C@@H]2O1` | - | -0.8721 | - |
| `COc1cc2c(cc1CNC(Cc1cccs1)c1nccs1)OCO2` (centres undefined) | - | 9.122 | - |
| `Cc1cccc2nc(CNCc3cccc4c3OCCCO4)cn12` | 48.46 | -1.078 | 0.02269 |
| `CCOc1cccc2c1OCC(C(=O)NS(=O)(=O)c1ccc(C)s1)=C2` | -15.24 | 0.5477 | -31.42 |
| `CNC(=O)NC(=O)CN1CCC(c2cccc(F)c2)C1` (centres undefined) | -13.98 | -2.673 | -32.83 |
| `CC(C)c1cccc(NC(=O)N2CC(N(C)C)C2)c1` | 9.685 | -2.2 | -41.29 |
| `Cc1cc(C(=O)N2CCCN(Cc3cnn(C(C)C)c3)CC2)no1` | 17.2 | -3.211 | -50.77 |
| `CC(c1ccccc1)n1c(SCC(=O)O)nnc1-c1ccccc1Cl` (centres undefined) | -4.892 | 7.204 | 11.25 |
| `Cc1nc(C)n(CC2CCCN(CCC(=O)N3CCOCC3)C2)n1` (centres undefined) | -4.966 | -4.138 | - |
| `Cc1ccc(C)c(Oc2cc(-n3nc(C)c(C#N)c3N)nc(C)n2)c1` | 6.945 | 4.16 | -26.58 |
| `O=C(O)C(F)(F)F.O=C(O)C(F)(F)F.[H][C@@]12C[C@H](C(=O)NC3CC3)CN(Cc3ccc4ccccc4n3)[C@]1([H])CCO2` | 16.95 | - | -259.7 |
| `CN(Cc1ccco1)C1CCC12CCN(C(=O)c1ccnnc1)CC2` (centres undefined) | - | -4.77 | - |
| `CN(C)C(=O)COC1COC2(CCN(CC3CC3)CC2)C1.O=C(O)C(F)(F)F` (centres undefined) | 31 | - | -35.89 |
| `CCN1CCN(C2CCN(Cc3nnc(C(C)(C)C)o3)CC2)C1=O` | 17.8 | 1.329 | -24.8 |
| `COc1ccccc1CN(Cc1cccs1)S(=O)(=O)N(C)C(C)C` | 12.99 | 0.1324 | -55.14 |
| `Cc1noc(CCNS(=O)(=O)N2CCCC2c2ccc(C)o2)n1` (centres undefined) | -18.66 | 14.06 | -15.08 |
| `NC(=O)CN(Cc1ccc(Br)cc1)C(=O)c1cnccn1` | 16.83 | -4.025 | -0.1824 |
| `Cc1cnc(-c2nc(C3CCN(Cc4ccccc4C)CC3)no2)cn1` | 21.45 | -5.078 | 6.658 |
| `O=C(c1ccncc1)N1CCN(c2ccc(F)cc2Cl)CC1` | 21.04 | 16.18 | -4.522 |
| `CCN(CC)c1ncccc1CNC(=O)c1cnn(CC)c1` | 14.04 | 2.781 | -43.7 |
| `CC(=O)N1CCC2(CC1)c1ncc(-c3ccc(F)cc3)n1CCN2C` | 44.65 | - | -61.34 |
| `COc1ccc(NS(=O)(=O)CC2=NC(=O)n3cccc3C2=O)cc1Cl` | -8.452 | -1.891 | -26.43 |
| `FC(F)(F)c1cc(NCCn2ncnn2)nc(-c2cccnc2)n1` | 7.16 | 0.7261 | 18.37 |
| `CC(=O)N(Cc1ncc(C)o1)C1CCN(Cc2cnc(C)s2)C1` (centres undefined) | 14.85 & -6.192 | -0.9804 | -35.9 |

Once more, the final 4:

{"compound": "CC(=O)N1CCC2(CC1)c1ncc(-c3ccc(F)cc3)n1CCN2C", "A": 44.65, "C": -61.34}
{"compound": "COc1ccc(NS(=O)(=O)CC2=NC(=O)n3cccc3C2=O)cc1Cl", "A": -8.452, "B": -1.891, "C": -26.43}
{"compound": "FC(F)(F)c1cc(NCCn2ncnn2)nc(-c2cccnc2)n1", "A": 7.16, "B": 0.7261, "C": 18.37}
{"compound": "CC(=O)N(Cc1ncc(C)o1)C1CCN(Cc2cnc(C)s2)C1", "stereo": "centres undefined", "A": "14.85 & -6.192", "B": -0.9804, "C": -35.9}